We go through 2 molecules from PMC11898665.

Protein sequences, listed by entry. Tags and fused reporters are not part of them.
UniProt P17820: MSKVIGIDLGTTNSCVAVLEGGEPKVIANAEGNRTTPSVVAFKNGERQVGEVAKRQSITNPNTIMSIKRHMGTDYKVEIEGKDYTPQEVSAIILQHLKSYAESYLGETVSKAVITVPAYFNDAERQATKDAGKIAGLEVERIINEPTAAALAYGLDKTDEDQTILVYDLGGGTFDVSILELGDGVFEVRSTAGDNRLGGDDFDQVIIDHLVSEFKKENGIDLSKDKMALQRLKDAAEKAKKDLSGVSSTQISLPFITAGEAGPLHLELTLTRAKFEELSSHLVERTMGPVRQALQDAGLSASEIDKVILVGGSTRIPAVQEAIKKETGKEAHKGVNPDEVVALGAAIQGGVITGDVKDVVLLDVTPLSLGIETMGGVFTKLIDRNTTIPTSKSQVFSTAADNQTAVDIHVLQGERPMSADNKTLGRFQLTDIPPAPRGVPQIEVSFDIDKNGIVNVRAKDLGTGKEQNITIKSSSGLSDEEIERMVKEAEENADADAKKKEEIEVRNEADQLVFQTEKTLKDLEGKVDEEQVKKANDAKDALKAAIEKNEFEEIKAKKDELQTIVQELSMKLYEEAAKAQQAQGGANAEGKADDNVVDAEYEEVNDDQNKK

No constants are given. Whether binding was seen depends on the method and setting. Some binding calls cover weakened binding; strength is not graded here.

The target in the experiment is DnaK (B. subtilis) (UniProt P17820). Briefly: two-hybrid; yeast two-hybrid screen with DnaK as bait; stringent screening conditions (supplemental methods).

B1: SpoIVCA (protein, UniProt P17867 1-500)
chain: MIAIYVRVSTEEQAIKGSSIDSQIEACIKKAGTKDVLKYADEGFSGELLERPALNRLREDASKGLISQVICYDPDRLSRKLMNQLIIDDELRKRNIPLIFVNGEYANSPEGQLFFAMRGAISEFEKAKIKERTSSGRLQKMKKGMIIKDSKLYGYKFVKEKRTLEILEEEAKIIRMIFNYFTDHKSPFFGRVNGIALHLTQMGVKTKKGAKVWHRQVVRQILMNSSYKGEHRQYKYDTEGSYVSKQAGNKSIIKIRPEEEQITVTIPAIVPAEQWDYAQELLGQSKRKHLSISPHNYLLSGLVRCGKCGNTMTGKKRKSHGKDYYVYTCRKNYSGAKDRGCGKEMSENKLNRHVWGEIFKFITNPQKYVSFKEAEQSNHLSDELELIEKEIEKTKKGRKRLLTLISLSDDDDLDIDEIKAQIIELQKKQNQLTEKCNEIQSKMKVLDDTSSSENALKRAIDYFQSIGADNLTLEDKKTIVNFIVKEVTIVDSDTIYIETY
Take B1: the binding entry is “binds”.

B2: NupG (protein, UniProt P42312 1-397)
chain: MYFLLNLVGLIVIMAVVFLCSPQKKKIKWRPIITLIVLELLITWFMLGTKVGSWAIGKIGDFFTWLIACASDGIAFAFPSVMANETVDFFFSALLPIIFIVTFFDILTYFGILPWLIDKIGWVISKASRLPKLESFFSIQMMFLGNTEALAVIRQQLTVLSNNRLLTFGLMSMSSISGSIIGSYLSMVPATYVFTAIPLNCLNALIIANLLNPVHVPEDEDIIYTPPKEEKKDFFSTISNSMLVGMNMVIVILAMVIGYVALTSAVNGILGVFVHGLTIQTIFAYLFSPFAFLLGLPVHDAMYVAQLMGMKLATNEFVAMLDLKNNLKSLPPHTVAVATTFLTSFANFSTVGMIYGTYNSILDGEKSTVIGRNVWKLLVSGIAVSLLSAAIVGLFVW
Regarding B2, the binding entry is reported as “binds”.
